# According to PubChem BioAssay AID588590 (National Center for Advancing Translational Sciences (NCATS), 2011):
# By UniProt entry, the sequences of proteins in these tests, tags left out. Where a name states a change or a piece, a line headed by the entry shows the natural chain unless it says otherwise.
# UniProt Q9UNA4: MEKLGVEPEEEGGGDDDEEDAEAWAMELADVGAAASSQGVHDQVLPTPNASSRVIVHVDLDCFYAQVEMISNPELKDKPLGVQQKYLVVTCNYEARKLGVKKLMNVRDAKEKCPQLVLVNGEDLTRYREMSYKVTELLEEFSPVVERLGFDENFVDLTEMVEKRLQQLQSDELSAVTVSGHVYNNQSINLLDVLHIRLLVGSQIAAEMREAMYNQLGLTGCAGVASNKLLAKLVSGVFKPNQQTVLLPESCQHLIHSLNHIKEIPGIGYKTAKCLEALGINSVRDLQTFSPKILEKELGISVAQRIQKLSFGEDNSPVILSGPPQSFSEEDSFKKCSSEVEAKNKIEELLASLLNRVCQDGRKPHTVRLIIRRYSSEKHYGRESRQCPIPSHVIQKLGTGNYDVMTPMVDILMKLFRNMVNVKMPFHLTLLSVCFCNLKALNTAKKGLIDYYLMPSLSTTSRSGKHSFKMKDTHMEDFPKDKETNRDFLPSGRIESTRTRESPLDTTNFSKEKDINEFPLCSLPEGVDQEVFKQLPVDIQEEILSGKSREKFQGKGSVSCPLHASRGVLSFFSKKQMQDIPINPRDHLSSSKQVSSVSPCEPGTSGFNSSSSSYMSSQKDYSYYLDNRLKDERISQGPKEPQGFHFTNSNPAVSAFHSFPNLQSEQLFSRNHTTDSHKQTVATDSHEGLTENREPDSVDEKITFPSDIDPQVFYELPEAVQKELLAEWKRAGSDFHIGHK
# Among all 390,000 compounds or so, about 4,000 (1%) were called active. Inconclusive means that the source gave no clear call. Such entries were picked first, then a sample of the others. Calls follow the shape of the dose curve; as a rule, active = well fitted inhibition curve with a large enough effect; inconclusive = small, poorly fitted or top-dose-only effect, or another doubt; inactive = no such curve, though single readings can be large or run the other way. Potencies beside an inconclusive call are fits to weak or partial responses and may not hold up.
# Target: DNA polymerase iota (Homo sapiens) (UniProt Q9UNA4)
# Assay: qHTS for Inhibitors of Polymerase Iota
# Settings: Pol iota fluorescent replication assay, 10 min; series mostly up to 115 µM; activity, negative = inhibition: at the top concentration
# From the text: DNA polymerases, such as Pol iota, are specifically involved in DNA repair. Pol iota specifically plays an important role in translesion synthesis, where the normal high-fidelity DNA polymerases cannot proceed and DNA synthesis stalls. […] Thus, while pol eta's (and most likely iota's) normal function is to protect humans against the deleterious consequences of DNA damage, under certain conditions they can have deleterious effects on human health. As a consequence, we propose to utilize a high throughput replication assay to identify small molecule inhibitors of pol iota.
# In a collaboration between the National Institute of Child Health & Human Development (NICHD) and NIH Chemical Genomics Center, a high-throughput, fluorescent screen was developed to screen the NIH Molecular Libraries Small Molecule Repository (MLSMR). This screen is used to identify inhibitors of pol iota.
# NIH Chemical Genomics Center [NCGC]
# NIH Molecular Libraries Probe Centers Network [MLPCN]
# Assay Submitter (PI): Roger Woodgate, NICHD)
# Three microliters of reagents (buffer in column 3 and 4 as negative control and 10 nM Pol iota in columns 1, 2, and 5-48) will be dispensed into 1,536-well black solid-bottomed plate. Compounds (23 nL) will be transferred via Kalypsys pin tool equipped with 1536-pin array. The plates will then be incubated for 15 min at room temperature, and 1 µL substrate (50 nM final concentration) will be added to start the reaction and kinetically read twice at 0 min and 10 min on the Viewlux reader.
# Potency is read from the fitted curve at half-maximal effect.
Structure (SMILES),Potency,"activity, negative = inhibition"
COC(=O)C1CN(C#N)N(c2ccc(Cl)cc2)C12c1ccccc1-c1ccccc12 (stereo unspecified),"inconclusive: 6.31 µM [inhibitor, full curve, poor fit]",–
Cc1cccc(N2C(=O)NC(=O)/C(=C\c3ccc4c(c3)CCCN4Cc3ccccc3)C2=O)c1,"inconclusive: 17.8 µM [inhibitor, full curve, poor fit]",–
N#C/C(=C\c1ccc(O)c(O)c1)C(=O)NCCCNC(=O)/C(C#N)=C/c1ccc(O)c(O)c1,active: 0.112 µM,–
Cc1c(N=Cc2c(O)n(CCc3ccccc3)c(=O)[nH]c2=O)c(=O)n(-c2ccccc2)n1C,"inconclusive: 7.08 µM [inhibitor, partial curve, poor fit]",–
Brc1c(NC2=NCCN2)ccc2nccnc12,"inconclusive: 28.2 µM [inhibitor, single point]",–
O=C1CC(=O)N(Cc2ccccc2)C(=S)N1,–,inactive: -16%
CCOc1ccc(OC(=O)c2ccc3c(=O)n4c(nc3c2)CCC4)cc1,"inconclusive: 25.1 µM [inhibitor, full curve]",–
COCCNC(=O)c1c(NC(=O)c2ccc(Br)o2)n(Cc2ccccc2)c2nc3ccccc3nc12,"inconclusive: 3.16 µM [inhibitor, full curve, poor fit]",–
N[C@@H](Cc1c[nH]c2ccccc12)c1nnc(SCc2ccc(Cl)cc2)o1,"inconclusive: 1.58 µM [inhibitor, full curve, poor fit]",–
O=C(C1CCN(c2nc3ccc(Br)cc3s2)CC1)N1CCC2(CC1)OCCO2,"inconclusive: 89.1 µM [inhibitor, partial curve, poor fit]",–
COc1cc(OC)c(OC)cc1/C=C1/C(=O)NC(=O)N(Cc2ccccc2)C1=O,"inconclusive: 10 µM [inhibitor, full curve, poor fit]",–
CN1CCC(O)(c2ccc(Cl)cc2)C(C(=O)c2ccc(Cl)cc2)C1 (stereo unspecified),"inconclusive: 35.5 µM [inhibitor, partial curve, poor fit]",–
O=C(CF)NC(NC(=S)Nc1ccccc1O)C(Cl)(Cl)Cl (stereo unspecified),"inconclusive: 35.5 µM [inhibitor, partial curve]",–
COc1ccccc1N1CCN(Cc2ccccc2)CC1,"inconclusive: 63.1 µM [inhibitor, single point]",–
CCOC(=O)N1CCN(Cc2cn3ccccc3n2)CC1,"inconclusive: 15.8 µM [inhibitor, single point]",–
CCN(CC)c1ccc(C=C2C(=O)N(C)C(=S)N(C)C2=O)o1,"inconclusive: 56.2 µM [inhibitor, partial curve]",–
COC(=O)Cc1cc(=O)n(-c2ccccc2)[nH]1,"inconclusive: 79.4 µM [inhibitor, full curve]",–
Clc1ccc(C(c2ccc(Cl)cc2)n2cc[n+](CC(OCc3ccc(Cl)cc3Cl)c3ccc(Cl)cc3Cl)c2)cc1 (stereo unspecified),"inconclusive: 20 µM [inhibitor, partial curve]",–
CN1CC[C@@]2(C)c3cc(O)ccc3N(C)C2O1 (stereo partly specified),active: 25.1 µM,–
Cc1ccc(S(=O)(=O)NP(=O)(Oc2ccccc2)Oc2ccccc2)cc1,"inconclusive: 56.2 µM [inhibitor, partial curve]",–
C=C1C/C(=C/C)C(=O)O[C@@H]2CCN3CC=C(COC(=O)[C@]1(C)O)[C@@H]23,"inconclusive: 89.1 µM [inhibitor, single point]",–

Structure (SMILES),Potency,"activity, negative = inhibition"
O=C1NC(=O)C(=Cc2ccc(OCCOc3ccc([N+](=O)[O-])cc3)cc2)C(=O)N1,"inconclusive: 35.5 µM [inhibitor, partial curve, poor fit]",–
CCCCn1c(O)c(C=Nc2c(C)n(C)n(-c3ccccc3)c2=O)c(=O)[nH]c1=O,"inconclusive: 0.631 µM [inhibitor, partial curve, poor fit]",–
O=C1C(=O)c2cccc3cccc1c23,–,inactive: 3.65%
O=c1[nH]c(=O)n(-c2ccccc2)c(O)c1/C=C/C=Nc1ccccc1,"inconclusive: 89.1 µM [inhibitor, single point]",–
CC1(C)C2CC=C(CN3CCOCC3)C1C2 (stereo unspecified),"inconclusive: 35.5 µM [inhibitor, single point]",–
O=C(Nc1ccc(F)cc1F)c1cccn(Cc2ccccc2)c1=O,–,inactive: -26.3%
Cc1ccc(/C=C2\C(=O)NC(=O)N(CCc3ccc(F)cc3)C2=O)o1,"inconclusive: 39.8 µM [inhibitor, single point]",–
O=[N+]([O-])c1ccc(N2CCCCCC2)c2nonc12,active: 28.2 µM,–
CC1(C)CSC(=NCc2ccccc2)N1,"inconclusive: 10 µM [inhibitor, partial curve, poor fit]",–
On1ccccc1=S,"inconclusive: 3.16 µM [inhibitor, full curve]",–
O=C(O)Cc1cnc[nH]1,"inconclusive: 10 µM [inhibitor, partial curve, poor fit]",–
C=CCN1C(=O)NC(=O)/C(=C/c2c(CCN(C)C(=O)c3ccccc3)cc3c(c2OC)OCO3)C1=O,–,inactive: -13.9%
CCCCn1c(O)c(/C=C2/C=CC=N2)c(=O)[nH]c1=O,"inconclusive: 31.6 µM [inhibitor, partial curve, poor fit]",–
CCOc1ccc(N2C(=O)/C(=C/c3ccc(C)o3)C(=O)NC2=S)cc1,active: 8.91 µM,–
CN1C(=O)C(=Cc2ccc(N3CCOCC3)o2)C(=O)N(C)C1=S,–,inactive: 52.3%
COc1cccc(N2C(=O)NC(=O)/C(=C\c3ccc([N+](=O)[O-])s3)C2=O)c1,"inconclusive: 10 µM [inhibitor, full curve, poor fit]",–
N=C(N)c1ccc(-c2ccc(-c3ccc(C(=N)N)cc3)o2)cc1,active: 10 µM,–
Cc1ccc(-c2[nH]nc3c2C(c2ccccc2OC(=O)N2CCOCC2)C(C#N)=C(N)O3)cc1 (stereo unspecified),"inconclusive: 39.8 µM [inhibitor, single point]",–
O=C(COc1ccccc1F)N1CCN(Cc2cc(=O)n3nc(-c4ccccc4Cl)sc3n2)CC1,–,inactive: 26.4%
COC(=O)Cn1cc(/C=C2\C(=O)NC(=O)N(c3ccc(OC)cc3)C2=O)c2ccccc21,"inconclusive: 2.24 µM [inhibitor, full curve, poor fit]",–

# Taken from above.
# CC1(C)C2CC=C(CN3CCOCC3)C1C2 (stereo unspecified) | Potency: inconclusive: 35.5 µM [inhibitor, single point]
# COC(=O)C1CN(C#N)N(c2ccc(Cl)cc2)C12c1ccccc1-c1ccccc12 (stereo unspecified) | Potency: inconclusive: 6.31 µM [inhibitor, full curve, poor fit]
